± gives the standard deviation of the averaged measurements. The effect of the compound repeats well; differences between the knockouts mostly do not.
Tested on: HCC-38
Assay: relative cell number vs DMSO control (72 h) (% of DMSO); higher = less growth inhibition (more cells)
Procedure: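 QMAP-Seq: a pool of 5 breast cancer cell lines (ZR-75-1, SKBR3, HCC-38, MDA-MB-231, BT-20), each carrying 12 doxycycline-inducible Cas9 sgRNA perturbations (11 knockouts plus non-targeting sgNT), was treated with compounds for 72 h at four 10-fold doses (10 nM-10 uM or 1 nM-1 uM range). Barcodes were amplified and sequenced, and cell number was interpolated from 293T spike-in standard curves. The result is expressed as % of the median of DMSO wells. Two biological replicates.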

[1] = sgRNA knockout: sgATF3, 1000 nM
[2] = sgRNA knockout: sgATF3, 10000 nM
[3] = sgRNA knockout: sgATF4, 1000 nM
[4] = sgRNA knockout: sgATF4, 10000 nM
[5] = sgRNA knockout: sgATF6, 1000 nM
[6] = sgRNA knockout: sgATF6, 10000 nM
[7] = sgRNA knockout: sgATG7, 1000 nM
[8] = sgRNA knockout: sgATG7, 10000 nM
[9] = sgRNA knockout: sgERN1, 1000 nM
[10] = sgRNA knockout: sgERN1, 10000 nM
[11] = sgRNA knockout: sgHSF1, 1000 nM
[12] = sgRNA knockout: sgHSF1, 10000 nM
[13] = sgRNA knockout: sgHSF2, 1000 nM
[14] = sgRNA knockout: sgHSF2, 10000 nM
[15] = sgRNA knockout: sgKEAP1, 100 nM
[16] = sgRNA knockout: sgKEAP1, 1000 nM
[17] = sgRNA knockout: sgKEAP1, 10000 nM
[18] = sgRNA knockout: sgNFE2L2, 10 nM
[19] = sgRNA knockout: sgNFE2L2, 100 nM
[20] = sgRNA knockout: sgNFE2L2, 1000 nM
[21] = sgRNA knockout: sgNFE2L2, 10000 nM
[22] = sgRNA knockout: sgSLC35F2, 10 nM
[23] = sgRNA knockout: sgSLC35F2, 100 nM
[24] = sgRNA knockout: sgSLC35F2, 1000 nM
[25] = sgRNA knockout: sgSLC35F2, 10000 nM
[26] = sgRNA knockout: sgXBP1, 1000 nM
[27] = sgRNA knockout: sgXBP1, 10000 nM

Q: What does the source list for `CN1CCN(CCCN2c3ccccc3Sc3ccc(C(F)(F)F)cc32)CC1` [Trifluoperazine]?
A: relative cell number (sgRNA knockout: sgATF3, 10 nM): 101 ± 21; relative cell number (sgRNA knockout: sgATF3, 100 nM): 99.7 ± 1.9; relative cell number [1]: 104.6 ± 0.87; relative cell number [2]: 74.9 ± 7; relative cell number (sgRNA knockout: sgATF4, 10 nM): 93.4 ± 9.3; relative cell number (sgRNA knockout: sgATF4, 100 nM): 87.8 ± 17; relative cell number [3]: 113 ± 9.1; relative cell number [4]: 71 ± 0.093; relative cell number (sgRNA knockout: sgATF6, 10 nM): 95.1 ± 2.7; relative cell number (sgRNA knockout: sgATF6, 100 nM): 90.5 ± 11; relative cell number [5]: 92.3 ± 9.1; relative cell number [6]: 83.8 ± 4.3; relative cell number (sgRNA knockout: sgATG7, 10 nM): 105 ± 13; relative cell number (sgRNA knockout: sgATG7, 100 nM): 91 ± 1.3; relative cell number [7]: 99.7 ± 2.1; relative cell number [8]: 81.5 ± 8.6; relative cell number (sgRNA knockout: sgERN1, 10 nM): 88.3 ± 17; relative cell number (sgRNA knockout: sgERN1, 100 nM): 92.6 ± 14; relative cell number [9]: 108 ± 12; relative cell number [10]: 82.2 ± 2.6; relative cell number (sgRNA knockout: sgHSF1, 10 nM): 75.6 ± 8.6; relative cell number (sgRNA knockout: sgHSF1, 100 nM): 104 ± 7.5; relative cell number [11]: 85.7 ± 23; relative cell number [12]: 76.7 ± 2.9; relative cell number (sgRNA knockout: sgHSF2, 10 nM): 88.3 ± 14; relative cell number (sgRNA knockout: sgHSF2, 100 nM): 95.6 ± 4.5; relative cell number [13]: 106 ± 2.1; relative cell number [14]: 74.5 ± 6.2; relative cell number (sgRNA knockout: sgKEAP1, 10 nM): 82.1 ± 5; relative cell number [15]: 97.3 ± 15; relative cell number [16]: 87.4 ± 25; relative cell number [17]: 91.1 ± 4.2; relative cell number [18]: 94.13 ± 0.4; relative cell number [19]: 84 ± 13; relative cell number [20]: 112 ± 4.9; relative cell number [21]: 70.2 ± 3; relative cell number [22]: 99.9 ± 7.2; relative cell number [23]: 88.4 ± 5.3; relative cell number [24]: 115 ± 11; relative cell number [25]: 77.1 ± 2.5; relative cell number (sgRNA knockout: sgXBP1, 10 nM): 95.3 ± 19; relative cell number (sgRNA knockout: sgXBP1, 100 nM): 98.5 ± 16; relative cell number [26]: 115 ± 5.4; relative cell number [27]: 75 ± 4

Q: How did the relative cell number (sgRNA knockout: sgATF3, 10 nM) turn out when `CNC(=O)c1cc(Oc2ccc(NC(=O)Nc3ccc(Cl)c(C(F)(F)F)c3)cc2)ccn1` [Sorafenib] was run?
A: Its relative cell number is 101 ± 8.1.

Q: What about the relative cell number (sgRNA knockout: sgATF3, 100 nM) of the same compound?
A: The relative cell number was 126 ± 49.

Q: And the relative cell number [1]?
A: The relative cell number was 126 ± 15.

Q: What about the relative cell number [2] of the same compound?
A: The relative cell number was 53.9 ± 4.5.

Q: What about the relative cell number (sgRNA knockout: sgATF4, 10 nM) of the same compound?
A: Its relative cell number is 100 ± 5.6.

Q: And the relative cell number (sgRNA knockout: sgATF4, 100 nM)?
A: Its relative cell number is 129 ± 57.

Q: What about the relative cell number [3] of the same compound?
A: Its relative cell number is 133 ± 42.

Q: And the relative cell number [4]?
A: The relative cell number was 53.5 ± 3.7.

Q: What about the relative cell number (sgRNA knockout: sgATF6, 10 nM) of the same compound?
A: Its relative cell number is 100 ± 2.4.

Q: What about the relative cell number (sgRNA knockout: sgATF6, 100 nM) of the same compound?
A: Its relative cell number is 100 ± 11.

Q: What about the relative cell number [5] of the same compound?
A: Its relative cell number is 125 ± 33.

Q: What about the relative cell number [6] of the same compound?
A: The relative cell number was 60.9 ± 11.

Q: And the relative cell number (sgRNA knockout: sgATG7, 10 nM)?
A: Its relative cell number is 98 ± 7.

Q: And the relative cell number (sgRNA knockout: sgATG7, 100 nM)?
A: Its relative cell number is 127 ± 44.

Q: What about the relative cell number [7] of the same compound?
A: Its relative cell number is 124 ± 11.

Q: And the relative cell number [8]?
A: Its relative cell number is 54 ± 1.2.

Q: What about the relative cell number (sgRNA knockout: sgERN1, 10 nM) of the same compound?
A: Its relative cell number is 98.4 ± 1.

Q: And the relative cell number (sgRNA knockout: sgERN1, 100 nM)?
A: The relative cell number was 154 ± 68.

Q: And the relative cell number [9]?
A: Its relative cell number is 121 ± 23.

Q: What about the relative cell number [10] of the same compound?
A: The relative cell number was 60.1 ± 2.8.

Q: What about the relative cell number (sgRNA knockout: sgHSF1, 10 nM) of the same compound?
A: The relative cell number was 98.9 ± 13.

Q: What about the relative cell number (sgRNA knockout: sgHSF1, 100 nM) of the same compound?
A: Its relative cell number is 115.5 ± 0.11.

Q: What about the relative cell number [11] of the same compound?
A: The relative cell number was 108 ± 25.

Q: What about the relative cell number [12] of the same compound?
A: Its relative cell number is 68.1 ± 4.4.

Q: And the relative cell number (sgRNA knockout: sgHSF2, 10 nM)?
A: The relative cell number was 96.9 ± 10.

Q: What about the relative cell number (sgRNA knockout: sgHSF2, 100 nM) of the same compound?
A: The relative cell number was 118 ± 10.

Q: And the relative cell number [13]?
A: The relative cell number was 121 ± 3.6.

Q: And the relative cell number [14]?
A: Its relative cell number is 64.5 ± 7.5.

Q: And the relative cell number (sgRNA knockout: sgKEAP1, 10 nM)?
A: Its relative cell number is 97.5 ± 20.

Q: What about the relative cell number [15] of the same compound?
A: Its relative cell number is 115.8 ± 1.1.

Q: And the relative cell number [16]?
A: Its relative cell number is 146 ± 15.

Q: And the relative cell number [17]?
A: Its relative cell number is 62.3 ± 15.

Q: And the relative cell number [18]?
A: Its relative cell number is 99.9 ± 0.15.

Q: And the relative cell number [19]?
A: The relative cell number was 134 ± 73.

Q: And the relative cell number [20]?
A: The relative cell number was 127 ± 26.

Q: And the relative cell number [21]?
A: The relative cell number was 52.7 ± 8.4.

Q: What about the relative cell number [22] of the same compound?
A: Its relative cell number is 94 ± 5.7.

Q: What about the relative cell number [23] of the same compound?
A: The relative cell number was 128 ± 42.

Q: What about the relative cell number [24] of the same compound?
A: Its relative cell number is 126 ± 25.

Q: And the relative cell number [25]?
A: Its relative cell number is 62 ± 3.8.

Q: What about the relative cell number (sgRNA knockout: sgXBP1, 10 nM) of the same compound?
A: The relative cell number was 92.5 ± 1.2.

Q: And the relative cell number (sgRNA knockout: sgXBP1, 100 nM)?
A: The relative cell number was 132 ± 44.

Q: What about the relative cell number [26] of the same compound?
A: Its relative cell number is 133 ± 34.

Q: What about the relative cell number [27] of the same compound?
A: Its relative cell number is 54 ± 11.
